PubChem BioAssay AID652243 – Drosophila RNAi Screening Center | 2013
Purpose: 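Fly genes required for human androgen receptor driven transcription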 (primary screen). Cells: Drosophila S2R+ cells. Knock-down reagent: long dsRNA against Drosophila genes. Time to read-out: 72 h (48 h, then 24 h hormone). Treatment: synthetic androgen R1881 at 10 nM for 24 h. Detection: 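Firefly light from an androgen-responsive reporter and Renilla control light per well, raw and unnormalised, for each of two replicates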. Direction: firefly reporter light: higher = more light from androgen-responsive reporter; Renilla control light: higher = more constitutive control signal (cell number, transfection). Hit rule: 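Across duplicate plates, a knock-down whose log firefly/Renilla ratio shifted a set fold down or up from the GFP/LacZ control mean was a hit; the downward cut appears as both 1.5 and 3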. Calls: active = hit: reporter lowered or raised; inactive = no hit.
In all, the deposit lists about 24,000 reagents; below is a random part of those that have a named target and a result. In the full data, 246 (1%) are marked active. 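Plates not normalised; calls are printed but the firefly/Renilla ratio behind them is not deposited; fold cut for lowering reported inconsistently.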 The raw values are shown without normalisation. Not stated in the record: the amount of reagent.

How did the screen score CG10357 [DRSC08155]?
firefly reporter light, replicate 1: 1.42e5; firefly reporter light, replicate 2: 1.45e5; Renilla control light, replicate 1: 1.19e6; Renilla control light, replicate 2: 1.53e6; call: inactive

How did the screen score lectin-30A [DRSC02560]?
firefly reporter light, replicate 1: 1.27e5; firefly reporter light, replicate 2: 1.32e5; Renilla control light, replicate 1: 1.21e6; Renilla control light, replicate 2: 1.33e6; call: inactive

What is on record for CG7024 [DRSC18414]?
firefly reporter light, replicate 1: 3.21e5; firefly reporter light, replicate 2: 2.85e5; Renilla control light, replicate 1: 3.82e6; Renilla control light, replicate 2: 3.36e6; call: inactive

For CG7024 [DRSC27277], what does the deposit list?
firefly reporter light, replicate 1: 3.00e5; firefly reporter light, replicate 2: 2.39e5; Renilla control light, replicate 1: 5.05e5; Renilla control light, replicate 2: 5.94e5; call: inactive

What did the screen give for rpk [DRSC12386]?
firefly reporter light, replicate 1: 39667; firefly reporter light, replicate 2: 33413; Renilla control light, replicate 1: 3.38e5; Renilla control light, replicate 2: 4.12e5; call: inactive

How did the screen score rpk [DRSC21656]?
firefly reporter light, replicate 1: 7.03e5; firefly reporter light, replicate 2: 7.26e5; Renilla control light, replicate 1: 1.99e6; Renilla control light, replicate 2: 2.01e6; call: inactive

What did the screen give for CG33645 [DRSC37853]?
firefly reporter light, replicate 1: 4.63e5; firefly reporter light, replicate 2: 3.73e5; Renilla control light, replicate 1: 1.01e6; Renilla control light, replicate 2: 1.33e6; call: inactive

With skl [DRSC10050], what was measured?
firefly reporter light, replicate 1: 2.22e5; firefly reporter light, replicate 2: 2.35e5; Renilla control light, replicate 1: 1.74e6; Renilla control light, replicate 2: 2.37e6; call: inactive

Which result is listed for CG6168 [DRSC10596]?
firefly reporter light, replicate 1: 2.06e5; firefly reporter light, replicate 2: 1.79e5; Renilla control light, replicate 1: 2.12e6; Renilla control light, replicate 2: 2.00e6; call: inactive

What did the screen give for eIF2D [DRSC13916]?
firefly reporter light, replicate 1: 1.20e6; firefly reporter light, replicate 2: 5.78e5; Renilla control light, replicate 1: 1.92e6; Renilla control light, replicate 2: 5.96e5; call: inactive

How did the screen score Cyp28d2 [DRSC03299]?
firefly reporter light, replicate 1: 91007; firefly reporter light, replicate 2: 1.05e5; Renilla control light, replicate 1: 9.42e5; Renilla control light, replicate 2: 9.48e5; call: inactive

Which result is listed for Cyp28d2 [DRSC27571]?
firefly reporter light, replicate 1: 2.16e5; firefly reporter light, replicate 2: 1.99e5; Renilla control light, replicate 1: 3.86e5; Renilla control light, replicate 2: 5.02e5; call: inactive

Which result is listed for CG3829 [DRSC04423]?
firefly reporter light, replicate 1: 9.62e5; firefly reporter light, replicate 2: 6.40e5; Renilla control light, replicate 1: 2.23e6; Renilla control light, replicate 2: 1.82e6; call: inactive

How did the screen score Drat [DRSC06600]?
firefly reporter light, replicate 1: 6.49e5; firefly reporter light, replicate 2: 1.24e6; Renilla control light, replicate 1: 8.49e5; Renilla control light, replicate 2: 1.97e6; call: inactive

With CG9550 [DRSC03262], what does the deposit list?
firefly reporter light, replicate 1: 1.71e5; firefly reporter light, replicate 2: 2.14e5; Renilla control light, replicate 1: 2.01e6; Renilla control light, replicate 2: 2.06e6; call: inactive

For CG9550 [DRSC26557], what was measured?
firefly reporter light, replicate 1: 4.01e5; firefly reporter light, replicate 2: 3.13e5; Renilla control light, replicate 1: 6.07e5; Renilla control light, replicate 2: 3.28e5; call: inactive

What is on record for CG17249 [DRSC08517]?
firefly reporter light, replicate 1: 9.83e5; firefly reporter light, replicate 2: 6.10e5; Renilla control light, replicate 1: 2.26e6; Renilla control light, replicate 2: 1.07e6; call: inactive

For sws [DRSC18843], what was measured?
firefly reporter light, replicate 1: 3.23e5; firefly reporter light, replicate 2: 3.53e5; Renilla control light, replicate 1: 3.04e6; Renilla control light, replicate 2: 2.24e6; call: inactive

Which result is listed for CG11417 [DRSC18581]?
firefly reporter light, replicate 1: 71259; firefly reporter light, replicate 2: 68235; Renilla control light, replicate 1: 3.88e5; Renilla control light, replicate 2: 4.31e5; call: inactive

With CG7362 [DRSC16236], how do the results read?
firefly reporter light, replicate 1: 9.93e5; firefly reporter light, replicate 2: 1.18e6; Renilla control light, replicate 1: 2.22e6; Renilla control light, replicate 2: 1.92e6; call: inactive

With CG7362 [DRSC29548], what was measured?
firefly reporter light, replicate 1: 3.08e5; firefly reporter light, replicate 2: 6.51e5; Renilla control light, replicate 1: 6.40e5; Renilla control light, replicate 2: 6.40e5; call: inactive

For CG7362 [DRSC36928], how do the results read?
call: inactive
